This is one part of the list.
Columns and labels:
Experiment in all cases: log2 fold change, soluble protein after heating vs DMSO (PISA); higher = thermal stabilisation; K562 lysate, 10 uM; active = over 0.2 and 3.5 SD of the protein, either way, in both replicates (recomputed)
vemurafenib = compound: CCCS(=O)(=O)Nc1ccc(F)c(C(=O)c2c[nH]c3ncc(-c4ccc(Cl)cc4)cc23)c1F [vemurafenib]
How it was run: (§1)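 Dounce homogenisation of K562 pellets in PBS pH 7.4 with 1 mM MgCl2 produced a crude extract, used at 1 mg/mL protein. Exposure to 10 μM compound lasted 30 min, and aliquots were then heated for 3 min across 48°C-58°C, pooled and brought to 0.5% NP-40 at 4°C. The supernatant after 21,000xg for 90 min was quantified by TMTpro 16plex LC-MS/MS with channel sums equalised. Duplicate values are given as log-two fold change in thermal stability relative to solvent controls.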

Sequences of proteins named here, by UniProt entry; tags and fusion partners are left off. A change or cut given only in a name is not applied to a line headed by its entry.
UniProt Q8WXE0: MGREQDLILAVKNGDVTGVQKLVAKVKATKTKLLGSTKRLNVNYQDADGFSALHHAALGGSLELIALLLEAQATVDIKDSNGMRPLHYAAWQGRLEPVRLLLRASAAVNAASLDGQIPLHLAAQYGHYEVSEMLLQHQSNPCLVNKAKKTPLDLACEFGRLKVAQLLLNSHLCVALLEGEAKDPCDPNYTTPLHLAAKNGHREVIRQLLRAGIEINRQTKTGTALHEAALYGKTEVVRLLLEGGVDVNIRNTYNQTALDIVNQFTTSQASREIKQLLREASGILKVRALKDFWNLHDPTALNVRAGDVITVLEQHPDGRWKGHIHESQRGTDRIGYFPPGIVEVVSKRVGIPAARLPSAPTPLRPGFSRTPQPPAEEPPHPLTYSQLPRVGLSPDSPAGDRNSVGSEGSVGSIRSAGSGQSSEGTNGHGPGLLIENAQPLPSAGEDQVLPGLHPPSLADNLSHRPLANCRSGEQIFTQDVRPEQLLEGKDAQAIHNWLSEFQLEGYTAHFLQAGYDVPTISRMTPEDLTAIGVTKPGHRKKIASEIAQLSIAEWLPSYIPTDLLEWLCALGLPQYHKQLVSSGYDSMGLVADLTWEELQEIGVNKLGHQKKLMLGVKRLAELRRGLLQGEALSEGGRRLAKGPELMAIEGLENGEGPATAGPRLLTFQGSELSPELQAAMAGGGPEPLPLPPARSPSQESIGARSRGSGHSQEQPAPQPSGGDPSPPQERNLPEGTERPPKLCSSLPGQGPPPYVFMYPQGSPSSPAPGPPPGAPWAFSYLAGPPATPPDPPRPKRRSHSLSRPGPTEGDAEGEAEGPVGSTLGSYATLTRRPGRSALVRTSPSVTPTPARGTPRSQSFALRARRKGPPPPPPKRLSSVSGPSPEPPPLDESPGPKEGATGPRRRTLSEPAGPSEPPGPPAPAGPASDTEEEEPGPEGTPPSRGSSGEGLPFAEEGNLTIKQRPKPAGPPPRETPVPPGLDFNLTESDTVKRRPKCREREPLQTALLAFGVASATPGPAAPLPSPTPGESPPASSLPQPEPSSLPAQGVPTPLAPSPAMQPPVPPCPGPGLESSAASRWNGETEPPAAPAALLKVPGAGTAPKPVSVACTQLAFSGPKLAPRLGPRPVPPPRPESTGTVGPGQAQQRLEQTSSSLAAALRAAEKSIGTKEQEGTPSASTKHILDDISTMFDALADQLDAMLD
UniProt Q5RIA9: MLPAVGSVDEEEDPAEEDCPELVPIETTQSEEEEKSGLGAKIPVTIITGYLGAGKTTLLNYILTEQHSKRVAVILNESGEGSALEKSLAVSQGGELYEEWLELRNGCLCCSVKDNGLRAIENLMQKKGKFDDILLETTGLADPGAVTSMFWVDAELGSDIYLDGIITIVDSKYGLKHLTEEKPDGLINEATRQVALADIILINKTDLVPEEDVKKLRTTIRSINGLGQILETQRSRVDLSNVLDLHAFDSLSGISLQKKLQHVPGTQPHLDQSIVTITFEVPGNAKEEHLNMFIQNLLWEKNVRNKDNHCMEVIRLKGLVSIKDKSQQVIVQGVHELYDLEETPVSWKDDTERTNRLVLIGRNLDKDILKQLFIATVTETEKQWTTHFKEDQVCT
UniProt Q96S94: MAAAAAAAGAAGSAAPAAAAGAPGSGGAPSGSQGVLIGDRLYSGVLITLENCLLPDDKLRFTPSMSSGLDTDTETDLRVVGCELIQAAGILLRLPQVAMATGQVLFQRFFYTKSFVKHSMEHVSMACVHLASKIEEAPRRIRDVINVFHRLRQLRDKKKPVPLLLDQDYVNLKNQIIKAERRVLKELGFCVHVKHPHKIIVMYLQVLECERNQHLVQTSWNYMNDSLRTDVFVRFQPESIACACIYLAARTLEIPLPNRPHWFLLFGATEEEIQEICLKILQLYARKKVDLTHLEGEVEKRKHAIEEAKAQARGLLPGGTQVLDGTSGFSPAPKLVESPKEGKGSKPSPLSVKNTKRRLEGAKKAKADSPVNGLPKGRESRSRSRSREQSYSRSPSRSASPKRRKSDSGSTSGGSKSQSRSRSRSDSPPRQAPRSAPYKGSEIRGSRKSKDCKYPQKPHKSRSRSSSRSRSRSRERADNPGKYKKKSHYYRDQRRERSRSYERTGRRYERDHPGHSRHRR
UniProt Q8ND76: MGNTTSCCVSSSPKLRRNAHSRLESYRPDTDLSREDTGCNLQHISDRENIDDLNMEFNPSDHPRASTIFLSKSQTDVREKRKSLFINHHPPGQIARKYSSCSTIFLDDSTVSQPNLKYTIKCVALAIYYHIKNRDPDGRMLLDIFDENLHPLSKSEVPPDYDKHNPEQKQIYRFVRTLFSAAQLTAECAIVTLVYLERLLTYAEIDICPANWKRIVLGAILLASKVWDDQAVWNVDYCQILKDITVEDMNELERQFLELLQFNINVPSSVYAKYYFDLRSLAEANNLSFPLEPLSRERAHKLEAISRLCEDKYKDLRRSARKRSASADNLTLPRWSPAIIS
UniProt Q9GZT6: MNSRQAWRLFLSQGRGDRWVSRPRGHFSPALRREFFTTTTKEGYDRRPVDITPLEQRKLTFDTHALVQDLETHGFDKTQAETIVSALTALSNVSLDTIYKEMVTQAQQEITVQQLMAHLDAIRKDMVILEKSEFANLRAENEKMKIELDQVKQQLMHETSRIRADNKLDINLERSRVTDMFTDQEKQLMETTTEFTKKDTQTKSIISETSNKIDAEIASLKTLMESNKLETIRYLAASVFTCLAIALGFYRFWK
UniProt Q7Z6B0: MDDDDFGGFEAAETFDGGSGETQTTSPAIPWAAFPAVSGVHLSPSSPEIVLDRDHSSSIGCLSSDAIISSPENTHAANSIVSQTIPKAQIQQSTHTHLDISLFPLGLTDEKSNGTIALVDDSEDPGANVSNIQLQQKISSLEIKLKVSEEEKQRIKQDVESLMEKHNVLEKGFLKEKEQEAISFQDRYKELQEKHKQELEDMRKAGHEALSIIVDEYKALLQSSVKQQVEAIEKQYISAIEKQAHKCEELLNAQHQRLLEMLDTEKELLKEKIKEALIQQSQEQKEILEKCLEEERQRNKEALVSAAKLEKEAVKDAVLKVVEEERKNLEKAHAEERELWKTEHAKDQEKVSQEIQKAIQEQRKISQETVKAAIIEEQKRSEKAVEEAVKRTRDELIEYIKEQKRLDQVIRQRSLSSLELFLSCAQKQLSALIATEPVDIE
UniProt Q14790: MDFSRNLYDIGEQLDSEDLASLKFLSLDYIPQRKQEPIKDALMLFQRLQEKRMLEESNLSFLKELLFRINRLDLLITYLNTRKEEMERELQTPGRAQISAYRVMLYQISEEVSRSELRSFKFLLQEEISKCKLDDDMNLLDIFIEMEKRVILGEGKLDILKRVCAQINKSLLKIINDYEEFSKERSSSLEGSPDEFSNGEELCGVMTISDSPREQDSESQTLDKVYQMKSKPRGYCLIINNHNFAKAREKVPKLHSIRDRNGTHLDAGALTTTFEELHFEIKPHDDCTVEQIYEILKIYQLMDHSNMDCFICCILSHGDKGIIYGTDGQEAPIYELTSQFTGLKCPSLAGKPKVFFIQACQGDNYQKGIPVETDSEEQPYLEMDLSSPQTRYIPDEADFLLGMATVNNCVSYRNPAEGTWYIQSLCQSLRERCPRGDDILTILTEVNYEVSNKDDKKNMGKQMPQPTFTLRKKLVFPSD
UniProt P50990: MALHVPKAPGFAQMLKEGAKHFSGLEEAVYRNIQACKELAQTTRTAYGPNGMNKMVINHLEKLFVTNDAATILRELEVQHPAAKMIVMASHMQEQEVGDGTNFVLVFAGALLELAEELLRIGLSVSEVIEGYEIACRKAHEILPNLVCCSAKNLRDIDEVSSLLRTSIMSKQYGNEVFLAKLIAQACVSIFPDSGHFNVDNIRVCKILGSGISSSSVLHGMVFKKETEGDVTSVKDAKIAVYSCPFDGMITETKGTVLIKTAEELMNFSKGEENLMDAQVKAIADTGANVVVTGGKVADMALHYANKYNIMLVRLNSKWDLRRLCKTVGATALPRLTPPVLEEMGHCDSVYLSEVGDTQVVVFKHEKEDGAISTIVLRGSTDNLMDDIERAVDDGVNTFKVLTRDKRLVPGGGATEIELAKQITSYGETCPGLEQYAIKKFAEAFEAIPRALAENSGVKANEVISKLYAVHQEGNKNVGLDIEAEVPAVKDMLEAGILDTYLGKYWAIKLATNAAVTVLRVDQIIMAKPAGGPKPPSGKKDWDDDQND
UniProt O15234, whole entry, looked up: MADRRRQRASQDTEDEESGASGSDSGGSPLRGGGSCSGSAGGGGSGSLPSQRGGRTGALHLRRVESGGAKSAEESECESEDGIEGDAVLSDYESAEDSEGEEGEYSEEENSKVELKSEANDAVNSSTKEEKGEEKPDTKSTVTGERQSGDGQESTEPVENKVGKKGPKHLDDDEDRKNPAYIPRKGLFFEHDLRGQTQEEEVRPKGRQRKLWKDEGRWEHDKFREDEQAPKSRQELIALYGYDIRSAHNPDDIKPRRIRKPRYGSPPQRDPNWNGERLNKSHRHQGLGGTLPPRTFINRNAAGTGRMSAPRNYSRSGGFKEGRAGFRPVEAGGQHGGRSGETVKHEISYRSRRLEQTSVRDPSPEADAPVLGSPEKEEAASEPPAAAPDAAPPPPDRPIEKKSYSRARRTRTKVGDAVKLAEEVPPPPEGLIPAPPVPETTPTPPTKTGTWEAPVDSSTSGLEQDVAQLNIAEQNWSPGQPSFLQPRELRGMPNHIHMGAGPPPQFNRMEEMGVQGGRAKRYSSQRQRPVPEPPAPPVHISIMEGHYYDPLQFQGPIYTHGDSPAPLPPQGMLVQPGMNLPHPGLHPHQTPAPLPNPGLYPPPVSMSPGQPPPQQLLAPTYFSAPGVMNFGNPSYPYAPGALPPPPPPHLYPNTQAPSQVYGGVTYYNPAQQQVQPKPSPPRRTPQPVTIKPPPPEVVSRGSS
UniProt Q13951, whole entry, looked up: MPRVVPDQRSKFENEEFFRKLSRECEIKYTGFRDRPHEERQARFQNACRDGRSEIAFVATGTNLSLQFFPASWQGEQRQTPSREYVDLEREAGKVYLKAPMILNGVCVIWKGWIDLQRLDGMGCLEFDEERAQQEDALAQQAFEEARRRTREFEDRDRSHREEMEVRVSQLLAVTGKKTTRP
UniProt P15529: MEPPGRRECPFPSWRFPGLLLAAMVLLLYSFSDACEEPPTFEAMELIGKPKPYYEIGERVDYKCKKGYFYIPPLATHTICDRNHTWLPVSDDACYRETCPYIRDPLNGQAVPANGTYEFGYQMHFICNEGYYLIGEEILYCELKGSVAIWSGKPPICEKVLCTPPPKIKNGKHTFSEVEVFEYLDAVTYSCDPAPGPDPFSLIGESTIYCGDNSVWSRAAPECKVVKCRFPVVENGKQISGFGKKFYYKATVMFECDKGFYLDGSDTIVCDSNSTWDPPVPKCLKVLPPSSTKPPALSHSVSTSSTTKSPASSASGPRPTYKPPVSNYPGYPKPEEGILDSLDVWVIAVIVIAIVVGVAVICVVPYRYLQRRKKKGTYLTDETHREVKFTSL
UniProt P50991: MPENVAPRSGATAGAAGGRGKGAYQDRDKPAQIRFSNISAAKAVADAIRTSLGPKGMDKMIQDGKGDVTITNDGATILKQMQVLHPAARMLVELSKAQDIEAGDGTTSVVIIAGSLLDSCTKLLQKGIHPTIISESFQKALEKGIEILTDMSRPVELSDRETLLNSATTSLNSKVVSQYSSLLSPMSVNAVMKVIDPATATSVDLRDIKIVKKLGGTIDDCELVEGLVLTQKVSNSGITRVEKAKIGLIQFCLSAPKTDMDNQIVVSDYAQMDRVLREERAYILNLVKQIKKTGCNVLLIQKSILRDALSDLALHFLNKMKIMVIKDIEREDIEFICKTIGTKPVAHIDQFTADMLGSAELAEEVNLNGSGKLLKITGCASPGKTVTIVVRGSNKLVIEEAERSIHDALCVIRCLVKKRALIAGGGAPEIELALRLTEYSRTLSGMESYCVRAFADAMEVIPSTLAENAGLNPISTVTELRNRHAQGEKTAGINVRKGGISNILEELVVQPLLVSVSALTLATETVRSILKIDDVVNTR
UniProt Q8N4S0: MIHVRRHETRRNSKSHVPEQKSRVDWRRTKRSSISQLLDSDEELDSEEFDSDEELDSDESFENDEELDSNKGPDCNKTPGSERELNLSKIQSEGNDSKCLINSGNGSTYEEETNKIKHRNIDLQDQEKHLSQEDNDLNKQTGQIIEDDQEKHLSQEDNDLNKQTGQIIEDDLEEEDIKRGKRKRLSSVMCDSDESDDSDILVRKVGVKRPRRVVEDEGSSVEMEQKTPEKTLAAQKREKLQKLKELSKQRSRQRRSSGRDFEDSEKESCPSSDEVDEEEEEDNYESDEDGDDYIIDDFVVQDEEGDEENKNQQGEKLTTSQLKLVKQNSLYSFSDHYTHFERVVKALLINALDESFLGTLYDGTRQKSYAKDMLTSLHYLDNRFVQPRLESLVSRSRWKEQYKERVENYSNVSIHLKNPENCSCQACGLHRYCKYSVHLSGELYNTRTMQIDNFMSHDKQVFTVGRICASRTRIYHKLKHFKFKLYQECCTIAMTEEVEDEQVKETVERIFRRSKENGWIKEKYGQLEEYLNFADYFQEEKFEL

[1] = compound: CCCS(=O)(=O)Nc1ccc(F)c(C(=O)c2c[nH]c3ncc(Cl)cc23)c1F
How it was run: as §1

barasertib = compound: CCN(CCCOc1ccc2c(Nc3cc(CC(=O)Nc4cccc(F)c4)[nH]n3)ncnc2c1)CCOP(=O)(O)O [barasertib]
How it was run: as §1

[2] = compound: CC[C@@H]1C(=O)N(C)c2cnc(Nc3ccc(C(=O)NC4CCN(C)CC4)cc3OC)nc2N1C1CCCC1
How it was run: as §1

volasertib = compound: CC[C@@H]1C(=O)N(C)c2cnc(Nc3ccc(C(=O)N[C@H]4CC[C@H](N5CCN(CC6CC6)CC5)CC4)cc3OC)nc2N1C(C)C [volasertib]
How it was run: as §1

[3] = compound: CCn1c(C(=O)N(C2CC2)C2CC2)cc2c3c(ncn3C)c(Nc3cc(C)n(C)n3)nc21
How it was run: as §1

[4] = compound: CCn1cc(-c2ccnc3[nH]c(-c4cccc(CN(C)C)c4)cc23)c(-c2ccc(NC(=O)N(C)C)cc2)n1
How it was run: as §1

[5] = compound: CN1CCC(CNc2ccc3ncc(-c4cccc(OC(F)(F)F)c4)n3n2)CC1
How it was run: as §1

saracatinib = compound: CN1CCN(CCOc2cc(OC3CCOCC3)c3c(Nc4c(Cl)ccc5c4OCO5)ncnc3c2)CC1 [saracatinib]
How it was run: as §1

sotrastaurin = compound: CN1CCN(c2nc(C3=C(c4c[nH]c5ccccc45)C(=O)NC3=O)c3ccccc3n2)CC1 [sotrastaurin]
How it was run: as §1

alvocidib = compound: CN1CC[C@H](c2c(O)cc(O)c3c(=O)cc(-c4ccccc4Cl)oc23)[C@H](O)C1 [alvocidib]
How it was run: as §1

Tubastatin A = compound: CN1CCc2c(c3ccccc3n2Cc2ccc(C(=O)NO)cc2)C1 [Tubastatin A]
How it was run: as §1

[6] = compound: CNC(=O)C1=CC=CC=C1NC2=NC(=NC=C2Cl)NC3=C(C=C(C=C3)N4CCOCC4)OC
How it was run: as §1

defactinib = compound: CNC(=O)c1ccc(Nc2ncc(C(F)(F)F)c(NCc3nccnc3N(C)S(C)(=O)=O)n2)cc1 [defactinib]
How it was run: as §1

[7] = compound: CNc1nc(-c2ccc3c(N)n[nH]c3c2)cc(N2C[C@@H](C(=O)NC3CCCCC3)CC[C@H]2C)n1
How it was run: as §1

encorafenib = compound: COC(=O)N[C@@H](C)CNc1nccc(-c2cn(C(C)C)nc2-c2cc(Cl)cc(NS(C)(=O)=O)c2F)n1 [encorafenib]
How it was run: as §1

[8] = compound: COC(=O)[C@H](CCSC)NC(=O)C1=C(C=C(C=C1)NC[C@H](CS)N)C2=CC=CC=C2
How it was run: as §1

alisertib = compound: COc1cc(Nc2ncc3c(n2)-c2ccc(Cl)cc2C(c2c(F)cccc2OC)=NC3)ccc1C(=O)O [alisertib]
How it was run: as §1

[9] = compound: COc1cc2nc(-c3cc(F)ccc3O)nc(N[C@@H]3CNC[C@H]3C(C)(C)O)c2cc1OC
How it was run: as §1

gefitinib = compound: COc1cc2ncnc(Nc3ccc(F)c(Cl)c3)c2cc1OCCCN1CCOCC1 [gefitinib]
How it was run: as §1

Row | Target | log2 fold change (vemurafenib) | log2 fold change [1] | log2 fold change (barasertib) | log2 fold change [2] | log2 fold change (volasertib) | log2 fold change [3] | log2 fold change [4] | log2 fold change [5] | log2 fold change (saracatinib) | log2 fold change (sotrastaurin) | log2 fold change (alvocidib) | log2 fold change (Tubastatin A) | log2 fold change [6] | log2 fold change (defactinib) | log2 fold change [7] | log2 fold change (encorafenib) | log2 fold change [8] | log2 fold change (alisertib) | log2 fold change [9] | log2 fold change (gefitinib)
1 | CASKIN2 (UniProt Q8WXE0) | inactive: 0.041 | inactive: -0.057 | inactive: 0.051 | inactive: 0.096 | inactive: 0.045 | inactive: 0.005 | inactive: -0.075 | inactive: 0.008 | inactive: 0.05 | inactive: -0.086 | inactive: 0.045 | inactive: 0.035 | inactive: 0.034 | inactive: 0.004 | inactive: 0.042 | inactive: -0.019 | inactive: -0.018 | inactive: 0.005 | inactive: 0.016 | inactive: -0.006
2 | CBWD5 (UniProt Q5RIA9) | inactive: 0.06 | inactive: 0.013 | inactive: 0.012 | inactive: -0.022 | inactive: -0.015 | inactive: -0.022 | inactive: -0.063 | inactive: -0.048 | inactive: -0.006 | inactive: -0.013 | inactive: -0.02 | inactive: 0.027 | inactive: 0.023 | inactive: 0.018 | inactive: 0.077 | inactive: 0.007 | inactive: 0.027 | inactive: 0.001 | inactive: 0.099 | inactive: 0.028
3 | CCNL2 (UniProt Q96S94) | inactive: 0.047 | inactive: -0.03 | inactive: 0.067 | inactive: -0.052 | inactive: 0.04 | inactive: 0.021 | inactive: 0.033 | inactive: -0.073 | inactive: 0 | inactive: 0.091 | inactive: 0.048 | inactive: -0.079 | inactive: 0.071 | inactive: 0.046 | inactive: 0.043 | inactive: 0.053 | inactive: 0.062 | inactive: -0.013 | inactive: 0.026 | inactive: -0.037
4 | CCNY (UniProt Q8ND76) | inactive: -0.011 | inactive: 0 | inactive: -0.016 | inactive: -0.148 | inactive: 0.036 | inactive: -0.103 | inactive: 0.032 | inactive: 0.037 | inactive: 0.063 | inactive: 0.025 | inactive: 0.001 | inactive: -0.139 | inactive: -0.015 | inactive: 0.011 | inactive: 0.04 | inactive: 0.023 | inactive: -0.085 | inactive: 0.037 | inactive: 0.008 | inactive: -0.091
5 | CCDC90B (UniProt Q9GZT6) | inactive: 0.013 | inactive: 0.002 | inactive: 0.061 | inactive: -0.044 | inactive: 0.047 | inactive: 0.013 | inactive: 0.132 | inactive: -0.093 | inactive: -0.018 | inactive: -0.06 | inactive: 0.054 | inactive: 0.045 | inactive: 0.026 | inactive: 0.117 | inactive: 0.033 | inactive: 0.015 | inactive: -0.164 | inactive: -0.04 | inactive: 0.019 | inactive: -0.026
6 | CCDC91 (UniProt Q7Z6B0) | inactive: -0.006 | inactive: -0.007 | inactive: -0.006 | inactive: 0.024 | inactive: -0.003 | inactive: -0.03 | inactive: 0.074 | inactive: -0.026 | inactive: 0.02 | inactive: 0.003 | inactive: 0.028 | inactive: -0.004 | inactive: -0.012 | inactive: 0.01 | inactive: -0.047 | inactive: 0.02 | inactive: -0.057 | inactive: 0 | inactive: -0.021 | inactive: -0.011
7 | CBX1 (UniProt P83916) | inactive: 0.001 | inactive: 0.015 | inactive: -0.075 | inactive: 0.028 | inactive: 0.01 | inactive: 0.006 | active: 0.301 | inactive: -0.111 | inactive: -0.003 | inactive: 0.038 | inactive: 0.078 | inactive: 0.011 | inactive: 0.011 | inactive: -0.001 | inactive: 0.025 | inactive: 0.01 | inactive: -0.055 | inactive: 0.012 | inactive: -0.025 | inactive: 0.059
8 | CASP8 isoform 9 (UniProt Q14790) | inactive: -0.024 | inactive: -0.002 | inactive: -0.017 | inactive: -0.073 | inactive: -0.027 | inactive: 0.038 | inactive: 0.095 | inactive: -0.061 | inactive: 0.054 | inactive: -0.018 | inactive: -0.008 | inactive: -0.013 | inactive: 0.06 | inactive: 0.044 | inactive: -0.026 | inactive: -0.012 | inactive: 0.022 | inactive: 0 | inactive: -0.006 | inactive: -0.007
9 | CCNT1 (UniProt O60563) | inactive: -0.013 | inactive: -0.016 | inactive: 0.036 | inactive: -0.005 | inactive: -0.027 | inactive: 0.009 | inactive: -0.091 | inactive: -0.014 | inactive: 0.057 | inactive: -0.005 | inactive: 0.026 | inactive: -0.032 | inactive: -0.045 | inactive: -0.016 | inactive: 0.127 | inactive: 0.012 | inactive: -0.005 | inactive: 0.046 | inactive: 0.095 | inactive: 0.012
10 | CCT8 (UniProt P50990) | inactive: -0.004 | inactive: -0.014 | inactive: -0.019 | inactive: -0.005 | inactive: 0.016 | inactive: -0.021 | inactive: -0.005 | inactive: 0.014 | inactive: -0.002 | inactive: -0.01 | inactive: 0.018 | inactive: 0.022 | inactive: -0.03 | inactive: -0.021 | inactive: 0.011 | inactive: -0.009 | inactive: -0.01 | inactive: 0.007 | inactive: -0.007 | inactive: -0.026
11 | CASC3 (UniProt O15234) | inactive: 0.017 | inactive: 0 | inactive: -0.015 | inactive: 0.105 | inactive: 0.01 | inactive: 0.046 | inactive: -0.035 | inactive: 0.046 | inactive: 0.064 | inactive: -0.012 | inactive: -0.045 | inactive: 0.073 | inactive: -0.023 | inactive: 0.012 | inactive: 0.001 | inactive: 0.065 | inactive: -0.057 | inactive: 0.035 | inactive: 0.012 | inactive: 0.007
12 | CBFB isoform 2 (UniProt Q13951) | inactive: 0.04 | inactive: -0.015 | inactive: -0.036 | inactive: -0.019 | inactive: 0.006 | inactive: 0.008 | inactive: -0.107 | inactive: 0.088 | inactive: 0.041 | inactive: -0.003 | inactive: -0.068 | inactive: 0.001 | inactive: -0.013 | inactive: -0.061 | inactive: -0.063 | inactive: 0.018 | inactive: -0.083 | inactive: 0.009 | inactive: -0.034 | inactive: -0.03
13 | CD46 isoform 2 (UniProt P15529) | inactive: -0.019 | inactive: -0.009 | inactive: 0.011 | inactive: 0.021 | inactive: 0.011 | inactive: 0.029 | inactive: -0.007 | inactive: -0.018 | inactive: 0.065 | inactive: 0.056 | inactive: 0.003 | inactive: 0.01 | inactive: -0.015 | inactive: 0.002 | inactive: -0.071 | inactive: -0.037 | inactive: -0.032 | inactive: 0.002 | inactive: -0.001 | inactive: 0.02
14 | CCT4 (UniProt P50991) | inactive: -0.015 | inactive: -0.006 | inactive: -0.019 | inactive: -0.063 | inactive: 0.002 | inactive: 0.019 | inactive: -0.002 | inactive: 0.014 | inactive: -0.011 | inactive: -0.018 | inactive: 0.046 | inactive: 0.005 | inactive: -0.019 | inactive: 0.001 | inactive: -0.009 | inactive: 0.004 | inactive: -0.012 | inactive: -0.014 | inactive: -0.01 | inactive: -0.023
15 | CCDC32 isoform 2 (UniProt Q9BV29) | inactive: 0.007 | inactive: 0 | inactive: 0.351 | inactive: -0.041 | inactive: 0.021 | inactive: -0.061 | inactive: -0.246 | inactive: 0.065 | inactive: 0.021 | inactive: -0.012 | inactive: -0.102 | inactive: -0.033 | inactive: -0.061 | inactive: 0.095 | inactive: 0.04 | inactive: 0.055 | inactive: -0.065 | inactive: -0.098 | inactive: -0.045 | inactive: -0.026
16 | CCDC82 (UniProt Q8N4S0) | inactive: -0.098 | inactive: -0.176 | inactive: -0.037 | inactive: 0.017 | inactive: -0.003 | inactive: 0.013 | inactive: -0.002 | inactive: 0.051 | inactive: 0.006 | inactive: 0.036 | inactive: 0.012 | inactive: 0.024 | inactive: 0.186 | inactive: 0.016 | inactive: -0.11 | inactive: -0.008 | inactive: -0.035 | inactive: 0.064 | inactive: -0.013 | inactive: 0.044

Reference: the supplement of paper PMC10849652
